{"source": "patent US20240181001A1", "about": "“TREATMENT” (Queen Mary University London, priority 2021, published 2024)", "key": {"[1]": {"test_system": "KP tumors", "type": "in vivo, mouse", "settings": "KP mice"}, "[2]": {"test_system": "KP tumors", "experiment": "Immunohistochemistry and immunofluorescence of KP tumor-bearing lungs", "type": "in vivo, mouse", "settings": "KP mice"}, "[3]": {"test_system": "KP tumors", "experiment": "Vascular perfusion (PE-PECAM/endomucin)", "type": "in vivo, mouse", "settings": "KP mice; 29P alone vs placebo"}, "[4]": {"test_system": "KP tumor burdened lung", "experiment": "Flow cytometry of lungs bearing KP tumors", "type": "in vivo, mouse", "experimental": "Tumors were minced and incubated at 37° C. for 20 min in an enzymatic cocktail containing DNase (0.5 mg/ml, Sigma). Liberase (2 mg/ml, Sigma) in HBSS (Sigma) was used to make a single cell suspension for pancreatic tumors. For breast tumors, collagenase/dispase (1 mg/ml, Sigma) in PBS, was used to make a single cell suspension. Cells were passed through a […] filter (BD Biosciences), washed in PBS supplemented with 2% foetal bovine serum and 2 mM EDTA, counted and used immediately for flow cytometry. Before cells were stained with specific antibodies, nonspecific binding sites were blocked with Fcγ R III/II TruStain fcX (93, Biolegend). Staining was performed in PBS supplemented with 2% foetal bovine serum and 2 mM EDTA. The following fluorochrome-conjugated antibodies were used: anti-CD45 (30-F11), anti-CD3 (145-2C11), anti-CD4 (L3T4), anti-CD8 (53-6.7), anti-CD69 (H1.2F3), anti-CD44 (IM7), anti-CD62L (MEL-14), anti-CD19 (6D5), anti-CD11b (M1/70), anti-F4/80 (BM8) from Biolegend; anti-PD1 (RMP1-30), anti-Gr1 (RB6-8C5) and anti-Ly6C (HK1.4) from eBioscience. Fixable viability dye (FVD) (eBioscience) was used to discriminate between live and dead cells. Acquisition and analyses were performed on a BD LSRII system using BD […] software (BD Biosciences). The percentage of cells were analysed using FlowJo software (version 10.0.8 tree Star). Dead cells were excluded from the analysis on the basis of FVD and SSC gating. Cell doublets were excluded from the analysis by gating for FSC area versus FSC width. CD45+ cells were used to include leukocytes only in the data analysis."}, "[5]": {"test_system": "KP tumor bearing lungs", "experiment": "RNAseq of lungs bearing KP tumors", "type": "in vivo, mouse"}, "[6]": {"test_system": "Mouse Lung Endothelial cells", "experiment": "RNAseq of endothelial cells treated in vitro", "type": "cell-based"}, "[7]": {"test_system": "collagen", "experiment": "Picrosirius red analysis in vivo", "settings": "in vivo after 29P treatment"}, "[8]": {"settings": "29P 250 μg/kg in combination with DC101 600 μg/mouse twice per week for 3 weeks"}, "[9]": {"settings": "29P + Cis^3 (cisplatin 3 mg/kg) + anti-PD-1 + anti-CTLA-4, vs Cis^3/29P or Cis^3/anti-PD-1/anti-CTLA-4"}, "[10]": {"settings": "29P + Cis^6 (cisplatin 6 mg/kg) + anti-PD-1 + anti-CTLA-4, vs Cis^6/29P or Cis^6/anti-PD-1/anti-CTLA-4"}, "[11]": {"settings": "29P in combination with anti-PD-1 and anti-CTLA-4 antibodies"}, "[12]": {"settings": "Cis^6 and 29P with CD8+ cell population ablated by anti-CD8 antibody"}, "[13]": {"settings": "anti-PD-1/anti-CTLA-4 and 29P plus antibody inhibiting CXCL9"}, "[14]": {"settings": "anti-PD-1/anti-CTLA-4 and 29P plus antibody inhibiting IFN-γ"}, "[15]": {"settings": "anti-PD-1/anti-CTLA-4 and 29P with CD8+ cell depletion by anti-CD8α antibodies"}, "[16]": {"settings": "anti-PD-1/anti-CTLA-4 and 29P vs placebo or anti-PD-1/anti-CTLA-4 alone"}, "[17]": {"settings": "KP tumor burdened lung, Cis^3/29P in comparison with Cis^6 alone"}, "[18]": {"settings": "KP tumor burdened lung, low-dose cisplatin (Cis^3) and 29P"}, "[19]": {"settings": "KP tumor bearing lungs, 29P compared with placebo"}, "[20]": {"settings": "KP tumor bearing lungs, after 29P treatment"}, "[21]": {"settings": "endothelial cells treated in vitro with 29P, RNA-seq"}}, "note": "Where two headings read alike, the source gives them in different places. Not every detail of the peptide structures is certain; ends, links or a residue may be inferred.", "data": [{"smiles": "CCCCCCOC(=O)N=C(NCCC[C@@H]1NC(=O)[C@@H](C(C)C)N(C)C(=O)[C@H](C)N(C)C(=O)[C@H](C)NC(=O)[C@H](CC(=O)OC)NC(=O)CNC1=O)NC(=O)OCCCCCC", "note": "[29P, c(*vR(Hoc)2GD(OMe)A*A)]", "values": [{"measurement": "number of tumor foci", "setting": "[1]; [8]", "result": "a reduction"}, {"measurement": "tumor burden", "setting": "[1]; [8]", "result": "a reduction"}, {"measurement": "number of tumor foci", "setting": "[1]; 29P 250 μg/kg once per week", "result": "no significant differences"}, {"measurement": "tumor burden", "setting": "[1]; 29P 250 μg/kg once per week", "result": "no significant differences"}, {"measurement": "numbers of foci", "setting": "[1]; [9]", "result": "reduced"}, {"measurement": "tumor burden", "setting": "[1]; [9]", "result": "reduced"}, {"measurement": "number of foci", "setting": "[1]; [10]", "result": "significantly reduced"}, {"measurement": "tumor burden", "setting": "[1]; [10]", "result": "significantly lower"}, {"measurement": "sensitization of tumors to anti-PD-1 monotherapy", "setting": "[1]; 29P + anti-PD-1, compared with 29P with anti-PD-1 plus anti-CTLA-4", "result": "sufficient to sensitize tumors to anti-PD-1 monotherapy albeit a more modest effect"}, {"measurement": "number of tumour foci", "setting": "[1]; [11]", "result": "reduced"}, {"measurement": "tumor burden", "setting": "[1]; [11]", "result": "reduced"}, {"measurement": "anti-tumor effect", "setting": "[1]; Cis^3/29P compared with Cis^6 and Cis^3", "result": "improves the anti-tumor effect to similar levels as those obtained with Cis6"}, {"measurement": "tumor area", "setting": "[1]; [12]", "result": "no longer resulted in reduced"}, {"measurement": "tumor burden", "setting": "[1]; [12]", "result": "no longer resulted in reduced"}, {"measurement": "number of foci", "setting": "[1]; anti-PD-1/anti-CTLA-4 and 29P plus anti-IL-18 antibody", "result": "significant reduction"}, {"measurement": "overall tumor burden", "setting": "[1]; anti-PD-1/anti-CTLA-4 and 29P plus anti-IL-18 antibody, compared to placebo", "result": "unchanged"}, {"measurement": "number of foci", "setting": "[1]; [13]", "result": "no reduction"}, {"measurement": "tumor burden", "setting": "[1]; [13]", "result": "no reduction"}, {"measurement": "number of foci", "setting": "[1]; [14]", "result": "no reduction"}, {"measurement": "tumor burden", "setting": "[1]; [14]", "result": "no reduction"}, {"measurement": "number of foci", "setting": "[1]; [15]", "result": "no reduction"}, {"measurement": "tumor area", "setting": "[1]; [15]", "result": "no reduction"}, {"measurement": "tumor burden", "setting": "[1]; [15]", "result": "no reduction"}, {"measurement": "blood vessel density in foci with alveolar growth patterns", "setting": "[2]; 29P 250 μg/kg alone vs placebo", "result": "not altered"}, {"measurement": "blood vessel density in foci with interstitial tumor growth patterns", "setting": "[2]; 29P 250 μg/kg alone vs placebo", "result": "increased significantly"}, {"measurement": "percentage of foci with interstitial tumor growth patterns", "setting": "[2]; 29P 250 μg/kg alone vs placebo", "result": "increased"}, {"measurement": "total number of tumor blood vessels per field", "setting": "[2]; 29P 250 μg/kg alone vs placebo", "result": "increased"}, {"measurement": "blood vessel density", "setting": "[2]; [8]", "result": "a reduction"}, {"measurement": "number of CD3+ cells assessed histologically", "setting": "[2]; 29P alone vs placebo", "result": "an increase"}, {"measurement": "percentage of αSMA-positive blood vessels (blood vessel maturation)", "setting": "[2]; 29P alone vs placebo", "result": "No effect was observed"}, {"measurement": "tumor hypoxia evaluated by Glut1 staining", "setting": "[2]; 29P alone vs placebo", "result": "decreased levels"}, {"measurement": "CD3+ and CD8+ T-cell infiltration", "setting": "[2]; 29P in combination with Cis^3/anti-PD-1/anti-CTLA-4 antibodies", "result": "an increase"}, {"measurement": "CD3+ and CD8+ T-cell infiltration", "setting": "[2]; 29P in combination with Cis^3 alone", "result": "an increase"}, {"measurement": "effect of 29P with DC101 in tumors with alveolar growth patterns", "setting": "[2]; 29P in combination with DC101", "result": "essentially absent"}, {"measurement": "effect of 29P with DC101 in tumors with interstitial growth patterns", "setting": "[2]; 29P in combination with DC101", "result": "highly evident"}, {"measurement": "CD3+ and CD8+ T-cell tumor infiltration", "setting": "[2]; 29P/anti-PD-1/anti-CTLA-4 antibodies, absence of Cis^3", "result": "enhanced"}, {"measurement": "levels of proliferating endothelial cells in vivo", "setting": "[2]; 29P, Endomucin/Ki67 staining", "result": "significantly enhanced"}, {"measurement": "29P-induced effect on T cell infiltration", "setting": "[2]; CXCL9 ablated using neutralizing antibody", "result": "impaired"}, {"measurement": "number of Ki67 positive endothelial cells in tumors with interstitial growth patterns compared with alveolar patterns", "setting": "[2]; after 29P treatment", "result": "significantly higher"}, {"measurement": "tumor immune phenotype (CD8+ localisation)", "setting": "[2]; anti-PD-1/anti-CTLA-4, 29P and anti-CXCL9", "result": "immune-excluded phenotype"}, {"measurement": "blood vessel density", "setting": "[2]; [16]", "result": "enhanced"}, {"measurement": "tumor hypoxia", "setting": "[2]; [16]", "result": "reduced"}, {"measurement": "CD3+ cell infiltration in foci with interstitial growth pattern", "setting": "[2]; combinations of PD-1 mAb, CTLA-4 mAb and 29P, Podoplanin/Endomucin/CD3 triple immunofluorescence", "result": "significantly enhanced"}, {"measurement": "percentages of tumors with an interstitial growth pattern", "setting": "[2]; quadruple combination Cis^3/anti-PD-1/anti-CTLA-4 antibodies and 29P", "result": "increased percentages"}, {"measurement": "percentages of tumors with an interstitial growth pattern", "setting": "[2]; triple combination anti-PD-1/anti-CTLA-4 and 29P", "result": "increased percentages"}, {"measurement": "percentage of perfused vessels", "setting": "[3]", "result": "an increase"}, {"measurement": "numbers of activated CD8+ cells (CD8+CD44+CD62−)", "setting": "[4]; KP tumor burdened lung, Cis^3/29P", "result": "increased"}, {"measurement": "Gr1+ neutrophils and monocytes", "setting": "[4]; [17]", "result": "decreased"}, {"measurement": "dendritic cells and natural killer cell numbers", "setting": "[4]; [17]", "result": "unaffected"}, {"measurement": "CD3+ cell numbers", "setting": "[4]; [18]", "result": "reduced"}, {"measurement": "CD8+ cell numbers", "setting": "[4]; [18]", "result": "no reduction"}, {"measurement": "regulatory T cell (Treg) population", "setting": "[4]; [18]", "result": "reduced"}, {"measurement": "percentage of CD45+ cell infiltration that were CD3+", "setting": "[4]; KP tumors, 29P alone vs placebo, flow cytometry", "result": "increase"}, {"measurement": "CXCL9, CXCL10, CXCL13, CCL8 and CCL5 transcripts", "setting": "[5]; 29P treated mouse tumor bearing lungs compared with signatures from immunoresponsive human cancers", "result": "commonly upregulated"}, {"measurement": "reactomes for Leukocyte transmigration and Cell surface receptors at the vascular wall", "setting": "[5]; 29P treatment, RNA-seq", "result": "significant enrichment"}, {"measurement": "RNA-transcript signatures involved in the immune response", "setting": "[5]; [19]", "result": "an upregulation"}, {"measurement": "pathways associated with Cytokine-Cytokine receptor interaction (CXCL13, CXCR5, CCL5, CXCL9, CCL10, CXCR3)", "setting": "[5]; [19]", "result": "enriched"}, {"measurement": "IL18", "setting": "[5]; [20]", "result": "upregulated"}, {"measurement": "Interferon-gamma signaling pathways", "setting": "[5]; [20]", "result": "significantly upregulated"}, {"measurement": "DNA replication and cell cycle transcripts", "setting": "[6]; [21]", "result": "an upregulation"}, {"measurement": "transcripts related to extracellular matrix formation", "setting": "[6]; [21]", "result": "a downregulation"}, {"measurement": "interferon (IFN-I, IFN-γ) pathway components", "setting": "[6]; endothelial cells treated with 29P in vitro", "result": "an upregulation"}, {"measurement": "collagen organization", "setting": "[7]", "result": "reduced collagen organization"}]}]}
